Measured values reported in PMC5655206.
These are yes or no findings as the source states them, for the method shown. Binding seen in cells or lysates may run through a third protein. Some binding calls cover weakened binding; strength is not graded here.

Chains of the proteins cited; added tags and fusions are not shown. Lines headed by an entry give the natural chain unless they say otherwise; changes in a name come on top.
UniProt O95817: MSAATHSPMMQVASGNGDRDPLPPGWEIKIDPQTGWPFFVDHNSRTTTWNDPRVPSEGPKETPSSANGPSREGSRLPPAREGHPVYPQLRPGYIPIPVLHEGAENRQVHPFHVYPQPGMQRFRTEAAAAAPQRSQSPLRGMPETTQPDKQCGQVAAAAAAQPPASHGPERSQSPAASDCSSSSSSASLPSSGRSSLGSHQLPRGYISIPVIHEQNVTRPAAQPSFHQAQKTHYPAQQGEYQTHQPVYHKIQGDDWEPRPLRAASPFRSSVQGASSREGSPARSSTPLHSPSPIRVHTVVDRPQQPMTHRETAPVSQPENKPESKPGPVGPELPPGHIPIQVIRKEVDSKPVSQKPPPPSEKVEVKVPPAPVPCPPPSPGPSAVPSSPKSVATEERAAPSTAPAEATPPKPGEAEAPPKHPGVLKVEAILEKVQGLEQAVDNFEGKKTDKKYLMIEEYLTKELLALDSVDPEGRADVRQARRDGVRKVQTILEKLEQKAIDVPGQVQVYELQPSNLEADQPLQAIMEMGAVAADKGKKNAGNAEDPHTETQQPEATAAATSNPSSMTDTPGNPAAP
UniProt P15056: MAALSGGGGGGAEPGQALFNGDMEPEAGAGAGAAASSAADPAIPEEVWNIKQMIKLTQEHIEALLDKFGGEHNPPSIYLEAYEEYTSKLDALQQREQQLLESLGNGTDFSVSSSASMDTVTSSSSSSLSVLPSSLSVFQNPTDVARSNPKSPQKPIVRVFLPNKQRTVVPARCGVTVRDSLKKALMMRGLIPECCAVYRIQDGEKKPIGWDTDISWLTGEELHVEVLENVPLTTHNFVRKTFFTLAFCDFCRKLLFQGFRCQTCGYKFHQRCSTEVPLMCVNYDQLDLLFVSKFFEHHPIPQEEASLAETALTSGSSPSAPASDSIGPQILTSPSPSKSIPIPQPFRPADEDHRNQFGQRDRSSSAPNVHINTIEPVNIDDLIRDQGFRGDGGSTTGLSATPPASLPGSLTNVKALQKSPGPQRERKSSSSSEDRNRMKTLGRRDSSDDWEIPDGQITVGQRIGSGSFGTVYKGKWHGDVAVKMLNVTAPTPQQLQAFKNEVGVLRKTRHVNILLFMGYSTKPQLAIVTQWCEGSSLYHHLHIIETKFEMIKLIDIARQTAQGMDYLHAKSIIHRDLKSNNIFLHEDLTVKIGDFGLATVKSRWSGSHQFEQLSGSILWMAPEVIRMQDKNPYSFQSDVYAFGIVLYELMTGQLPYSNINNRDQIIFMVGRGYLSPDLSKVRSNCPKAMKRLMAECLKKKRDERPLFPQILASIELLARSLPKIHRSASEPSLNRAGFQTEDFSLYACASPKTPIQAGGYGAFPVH

Molecular target: BAG3 protein (human (endogenous in A375)) (UniProt O95817)
Assay: co-IP; A375 cell extracts immunoprecipitated at 4°C overnight with anti-BAG3 mAb AC-2 coupled to Dynabeads; Western blot with anti-BAG3 polyclonal, anti-BRAF, anti-HSC70 and anti-GAPDH antibodies; mouse IgGs as negative control

## BRAFV600E (from UniProt P15056 1-766)
  binding: binds
